These are yes or no findings as the source states them, for the method shown. In cells and extracts the contact can be indirect. Here binding means that the protein was enriched with, or labelled near, the bait; the list need not be complete. A no says only that the protein was not detected with the bait.
Legend:
[1] = target: Flag-KBTBD4^P311PP, pcDNA3.1(+) construct (human) (UniProt Q9NVX7); experiment: affinity purification with mass spectrometry; HEK293T transfected with Flag-KBTBD4 wild type or mutants; 100 nM MLN4924 for 4 h; ANTI-FLAG M2 Affinity Gel, eluted with 3xFLAG peptide; tryptic digest, LC-MS/MS
[2] = target: Flag-KBTBD4^R313PRR, pcDNA3.1(+) construct (human) (UniProt Q9NVX7); experiment: as above

Chains of the proteins cited; added tags and fusions are not shown. Lines headed by an entry give the natural chain unless they say otherwise; changes in a name come on top.
UniProt Q9NVX7: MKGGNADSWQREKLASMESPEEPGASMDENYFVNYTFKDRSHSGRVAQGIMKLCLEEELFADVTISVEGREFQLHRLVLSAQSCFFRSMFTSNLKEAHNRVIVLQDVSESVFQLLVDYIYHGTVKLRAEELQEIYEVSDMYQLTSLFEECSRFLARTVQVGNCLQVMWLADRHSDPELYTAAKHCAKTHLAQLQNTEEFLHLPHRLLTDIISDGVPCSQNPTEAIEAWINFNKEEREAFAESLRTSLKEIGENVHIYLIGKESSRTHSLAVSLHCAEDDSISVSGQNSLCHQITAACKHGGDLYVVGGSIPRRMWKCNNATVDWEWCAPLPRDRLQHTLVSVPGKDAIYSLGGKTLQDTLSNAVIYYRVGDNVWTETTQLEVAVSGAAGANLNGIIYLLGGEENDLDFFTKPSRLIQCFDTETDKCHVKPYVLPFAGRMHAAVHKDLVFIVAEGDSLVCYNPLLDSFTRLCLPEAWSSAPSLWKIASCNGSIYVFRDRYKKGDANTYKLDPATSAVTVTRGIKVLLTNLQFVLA
UniProt Q9UKL0: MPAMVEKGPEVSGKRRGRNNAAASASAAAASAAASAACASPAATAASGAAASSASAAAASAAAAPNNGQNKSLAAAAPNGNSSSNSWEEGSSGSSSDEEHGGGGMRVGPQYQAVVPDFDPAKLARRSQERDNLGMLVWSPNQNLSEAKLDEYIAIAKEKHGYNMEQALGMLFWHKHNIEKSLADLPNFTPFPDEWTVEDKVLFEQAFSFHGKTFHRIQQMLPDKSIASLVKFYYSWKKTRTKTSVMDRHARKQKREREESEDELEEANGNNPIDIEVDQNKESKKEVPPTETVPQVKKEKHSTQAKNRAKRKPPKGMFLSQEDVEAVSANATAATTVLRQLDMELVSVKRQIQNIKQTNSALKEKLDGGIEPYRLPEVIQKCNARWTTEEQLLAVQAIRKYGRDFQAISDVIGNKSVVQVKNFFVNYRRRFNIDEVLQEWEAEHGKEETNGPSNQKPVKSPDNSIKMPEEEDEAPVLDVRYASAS
UniProt Q92769: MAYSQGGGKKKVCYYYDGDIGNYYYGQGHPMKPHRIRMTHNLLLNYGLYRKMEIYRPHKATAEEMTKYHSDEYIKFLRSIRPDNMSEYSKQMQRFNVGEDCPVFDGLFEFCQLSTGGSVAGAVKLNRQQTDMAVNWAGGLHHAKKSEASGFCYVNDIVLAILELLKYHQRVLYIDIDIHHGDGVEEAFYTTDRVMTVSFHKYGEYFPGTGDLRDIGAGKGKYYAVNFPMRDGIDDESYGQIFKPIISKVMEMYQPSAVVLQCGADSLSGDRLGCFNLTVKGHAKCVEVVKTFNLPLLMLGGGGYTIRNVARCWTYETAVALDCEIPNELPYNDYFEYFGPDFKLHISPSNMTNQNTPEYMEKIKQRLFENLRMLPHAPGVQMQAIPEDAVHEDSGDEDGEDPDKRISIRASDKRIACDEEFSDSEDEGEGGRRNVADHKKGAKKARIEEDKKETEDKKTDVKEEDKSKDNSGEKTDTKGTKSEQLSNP
UniProt Q13547: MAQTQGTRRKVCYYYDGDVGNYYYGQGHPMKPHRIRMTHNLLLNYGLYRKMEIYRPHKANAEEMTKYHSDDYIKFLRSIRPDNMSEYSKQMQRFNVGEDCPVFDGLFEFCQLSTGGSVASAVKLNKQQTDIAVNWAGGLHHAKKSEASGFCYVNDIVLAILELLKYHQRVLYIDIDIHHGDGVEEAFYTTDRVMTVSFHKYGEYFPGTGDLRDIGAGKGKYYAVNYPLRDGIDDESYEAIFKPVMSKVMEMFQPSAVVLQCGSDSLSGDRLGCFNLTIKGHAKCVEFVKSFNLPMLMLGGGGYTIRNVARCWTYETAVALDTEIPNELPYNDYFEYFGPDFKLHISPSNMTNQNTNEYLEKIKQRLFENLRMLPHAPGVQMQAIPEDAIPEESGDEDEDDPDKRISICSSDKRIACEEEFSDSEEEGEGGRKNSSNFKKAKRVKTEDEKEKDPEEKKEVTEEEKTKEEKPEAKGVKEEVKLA
UniProt Q5VTD9: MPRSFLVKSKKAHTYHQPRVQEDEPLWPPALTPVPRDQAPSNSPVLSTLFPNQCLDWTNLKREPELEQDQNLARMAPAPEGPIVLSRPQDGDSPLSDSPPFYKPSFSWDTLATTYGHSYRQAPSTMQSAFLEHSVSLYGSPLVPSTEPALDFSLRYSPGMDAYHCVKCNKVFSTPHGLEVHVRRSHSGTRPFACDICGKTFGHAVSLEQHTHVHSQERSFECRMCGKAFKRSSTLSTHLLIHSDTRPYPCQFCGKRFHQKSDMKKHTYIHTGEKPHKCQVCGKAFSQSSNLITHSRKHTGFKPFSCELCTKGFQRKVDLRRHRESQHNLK
UniProt Q99684: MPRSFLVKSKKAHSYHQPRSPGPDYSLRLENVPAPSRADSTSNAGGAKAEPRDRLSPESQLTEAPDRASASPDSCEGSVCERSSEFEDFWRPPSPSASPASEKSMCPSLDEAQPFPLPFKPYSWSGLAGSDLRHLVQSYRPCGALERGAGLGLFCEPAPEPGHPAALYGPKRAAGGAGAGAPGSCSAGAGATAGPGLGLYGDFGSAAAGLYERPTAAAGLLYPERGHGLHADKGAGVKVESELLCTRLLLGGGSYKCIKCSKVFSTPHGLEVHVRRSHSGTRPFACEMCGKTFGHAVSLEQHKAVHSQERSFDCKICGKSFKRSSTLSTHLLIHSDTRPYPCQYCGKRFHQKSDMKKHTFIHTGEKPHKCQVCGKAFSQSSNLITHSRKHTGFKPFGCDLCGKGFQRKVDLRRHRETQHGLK

| binding [1] | binding [2] | Substance |
| --- | --- | --- |
| binds | binds | CoREST (REST Corepressor), endogenous in HEK293T (from UniProt Q9UKL0 1-485) |
| binds | binds | HDAC2 (histone deacetylase 2) (from UniProt Q92769 1-488) |
| binds | binds | HDAC1 (histone deacetylase 1) (from UniProt Q13547 1-482) |
| no binding | no binding | GFI1B (from UniProt Q5VTD9 1-330) |
| no binding | no binding | Growth Factor Independent Protein 1 (GFI1) (from UniProt Q99684 1-422) |

Reference: article PMC9525703
